≈ marks a conversion by molar mass, not a printed value. Part of at least one peptide drawing is inferred or uncertain, most often the ends. Positions of bridges follow the written chain, without caps; N, C: chain ends. Residues, ends and D or L forms follow the SMILES beside them.
Tested on: HIV
Test: Antiviral activity against HIV in HIV-infected MT-4 cells (MTT method)
Format: cell-based, human immunodeficiency virus
Details: for EC50 (concentration at which cell death due to HIV infection is 50% inhibited): HIV-infected MT-4 cells, MOI 0.001, 37° C., 5 days, MTT method
Procedure: The antiviral activity-against HIV of the polypeptide (1) synthesized in Example 1 as well as polypeptides (2), (3), (4), (7), (12), (13), (14), (20), (21) and (26) was tested and evaluated according to the following method.
HIV-infected MT-4 cells (2.5×10^4 cells/well, multiplicity of infection (MOI): 0.001) immediately after infection were added together with the test substance with various changes of the concentration to a 96-well microtitre plate. After incubation at 37° C. for 5 days in a CO2 incubator, the number of survivor cells was measured by the MTT method [Pauwels et al.; J. Virol. Methods, 20, 309-321 (1988)]. The antiviral activity is expressed as a concentration at which cell death due to HIV infection is 50% inhibited (EC50 : 50% effective concentration). On the other hand, in order to know the cytotoxicity of the test substance on the MT-4 cells, virus-noninfected cells are incubated, likewise as above, together with the test compound with various changes of the concentration. The cytotoxicity is expressed as 50% cytotoxic concentration […] due to the test substance. Further, the rough ratio of CC50 to EC50 (CC50 /EC50) is expressed as an effective ratio (SI=selectivity index).

| SMILES | EC50 (concentration at which cell death due to HIV infection is 50% inhibited) [µg/mL] | selectivity in killing HIV infected cells (in words) (MT-4 cells, Table III) | selectivity index higher than for any of the known high endotoxin affinity compounds (compared with Tachyplesins and Polyphemusins of Table III) |
| --- | --- | --- | --- |
| CC[C@H](C)[C@@H]1NC(=O)CNC(=O)[C@H](CCCNC(=N)N)NC(=O)[C@H](Cc2ccc(O)cc2)NC(=O)[C@@H]2CSSC[C@H](NC1=O)C(=O)N[C@@H](Cc1ccc(O)cc1)C(=O)N[C@@H](CCCNC(=N)N)C(=O)N[C@@H](CCCCN)C(=O)N[C@H](C(=O)N[C@@H](CCCNC(=N)N)C(N)=O)CSSC[C@H](NC(=O)[C@H](Cc1c[nH]c3ccccc13)NC(=O)[C@@H](N)CCCNC(=N)N)C(=O)N[C@@H](Cc1ccccc1)C(=O)N[C@@H](CCCNC(=N)N)C(=O)N[C@@H](C(C)C)C(=O)N2 [Tachyplesin II, ArgTrpCysPheArgValCysTyrArgGlyIleCysTyrArgLysCysArg NH2, reference compound] (H-RWCFRVCYRGICYRKCR-NH2; disulfide 3-16, 7-12) | 6.6 (≈ 2.92 µM) | – | – |
| N=C(N)NCCC[C@H](NC(=O)[C@@H]1CSSC[C@H](NC(=O)[C@H](Cc2c[nH]c3ccccc23)NC(=O)[C@H](CCCNC(=N)N)NC(=O)[C@@H](N)CCCNC(=N)N)C(=O)N[C@@H](Cc2ccc(O)cc2)C(=O)N[C@@H](CCCNC(=N)N)C(=O)N[C@@H](CCCCN)C(=O)N[C@H]2CSSC[C@H](NC(=O)[C@H](Cc3ccc(O)cc3)NC(=O)CNC(=O)[C@H](CCCCN)NC(=O)[C@H](Cc3ccc(O)cc3)NC2=O)C(=O)N[C@@H](Cc2ccc(O)cc2)C(=O)N[C@@H](CCCNC(=N)N)C(=O)N[C@@H](CCCCN)C(=O)N1)C(N)=O [polypeptide (1)] (H-RRWCYRKCYKGYCYRKCR-NH2; disulfide 4-17, 8-13) | 0.005 (≈ 0.00201 µM) | particularly selective | at least 7 fold |

Source: patent publication US5449752A, “Polypeptides with affinity to lipopolysaccharides and their uses” (Seikagaku Kogyo K.K., priority 1991, dated 1995)
